Reference: US9139543B2, “Thiazole compounds and uses thereof” (Institute of Pharmacology and Toxicology Academy of …, priority 2012, dated 2015)
At least one structure is not confirmed: it was looked up by name or label, or the drawing left a doubt.

Tested on: myocardial cells
Assay: Activity of preventing cardiomyocyte apoptosis induced by TM (MTT cell survival)
Type: cell-based, Neonatal Wistar rats
Conditions: primary neonatal rat myocardial cells, TM 0.5 μg/ml
Method: Neonatal Wistar rats newborn within 24 h, not confined to female or male (provided by the Center of Laboratory Animals, Academy of Military Medical Science of the PLA, animal certificate No.: SCXK-( ? ) 2007-004). High-sugar DMEM culture medium, trypsinase, and type II collagenase purchased from Gibco Company; fetal bovine serum (FBS) purchased from Beijing Yuanhengshengma Biological Technology Institute; 5-bromo-2-deoxyuridine (5-Brdu), tunicamycin (TM) purchased from Sigma Company; thiazolyl blue (MTT), dimethyl sulfoxide (DMSO) which is the product of Amresco; other chemical agents were all analytical pure and made in China. Universal Microplate ReaderEL800 type of ELIASA was a product of BIO-TEK Company of US.
neonatal Wistar rats newborn within 24 h were used, skin of abdomen was sterilized with iodine and alcohol. Tissue of ventricular apex was taken out with aseptic operation, cut into pieces with 1 mm^3 size, added with suitable amount of 0.125% pancretin and 0.1% collagenase II (final concentration was respectively 0.1% and 0.02%), mechanical shaking in 37° C. water-bath, 10 min each time, digested repeatedly until the tissue pieces were completely digested. The prepared myocardial cell suspension was inoculated in a 75 cm^2 culture flask. Non-myocardial cells were removed by differential adhesion method. […]

With `O=C(/C=C/c1ccccc1)NC(Nc1nc(-c2ccc(F)cc2F)cs1)C(Cl)(Cl)Cl` (stereo not shown) [Example 4, (2E)-3-(2-phenyl)-N-[1-(2,4-difluorophenyl-2-thiazolyl)-2,2,2-trichloroethyl]-2-acrylamide] the “Protection effects against cardiomyocyte apoptosis induced by TM (in words)” value was “good protection effects”.
